Results taken from the supplement of paper PMC12823440, “Inhibitors supercharge kinase turnover through native proteolytic circuits” (Nature, 2025).
Structures can show the parent of a compound that is named as a salt. The list shows a part of the results. The calls rarely recur for the same compound in another form.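 Kinases were expressed as nanoluciferase fusions in K562 cells and luminescence was read every 4 h between 2 and 18 h as percent of control, DMSO set to 100% and a positive control to 0%. A time point counts as decreased when the signal drops significantly (2 sigma). The hit call is the authors' own, does not follow from the count of time points alone, and its rule is not shown.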

Amino acid sequences for entries named in this document (tags omitted).
UniProt P29317, whole entry: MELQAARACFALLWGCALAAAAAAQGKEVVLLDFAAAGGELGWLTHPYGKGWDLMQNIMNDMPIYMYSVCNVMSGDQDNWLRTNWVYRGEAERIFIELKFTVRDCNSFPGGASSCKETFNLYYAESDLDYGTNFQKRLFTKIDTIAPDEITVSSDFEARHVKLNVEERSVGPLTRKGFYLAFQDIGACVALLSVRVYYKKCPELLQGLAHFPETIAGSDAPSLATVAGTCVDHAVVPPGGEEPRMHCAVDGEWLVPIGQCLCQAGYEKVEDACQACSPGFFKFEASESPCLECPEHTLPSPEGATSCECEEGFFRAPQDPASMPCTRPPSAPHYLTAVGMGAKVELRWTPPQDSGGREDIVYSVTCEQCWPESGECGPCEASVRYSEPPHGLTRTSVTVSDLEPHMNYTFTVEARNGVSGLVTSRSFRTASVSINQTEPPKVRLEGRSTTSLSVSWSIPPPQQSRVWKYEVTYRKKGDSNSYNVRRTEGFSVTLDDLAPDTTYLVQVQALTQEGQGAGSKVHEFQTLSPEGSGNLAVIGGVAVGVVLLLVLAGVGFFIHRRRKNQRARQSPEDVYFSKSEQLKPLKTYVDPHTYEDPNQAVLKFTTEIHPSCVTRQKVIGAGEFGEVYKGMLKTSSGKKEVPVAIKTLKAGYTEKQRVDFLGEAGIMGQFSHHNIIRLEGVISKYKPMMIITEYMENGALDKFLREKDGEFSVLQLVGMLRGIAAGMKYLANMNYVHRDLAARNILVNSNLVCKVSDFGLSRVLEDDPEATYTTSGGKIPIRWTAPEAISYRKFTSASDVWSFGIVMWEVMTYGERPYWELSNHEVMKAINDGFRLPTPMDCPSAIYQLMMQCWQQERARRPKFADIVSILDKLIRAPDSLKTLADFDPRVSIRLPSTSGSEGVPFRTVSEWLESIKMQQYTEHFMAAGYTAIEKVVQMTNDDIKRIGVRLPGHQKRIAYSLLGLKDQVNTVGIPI
UniProt P21860, whole entry: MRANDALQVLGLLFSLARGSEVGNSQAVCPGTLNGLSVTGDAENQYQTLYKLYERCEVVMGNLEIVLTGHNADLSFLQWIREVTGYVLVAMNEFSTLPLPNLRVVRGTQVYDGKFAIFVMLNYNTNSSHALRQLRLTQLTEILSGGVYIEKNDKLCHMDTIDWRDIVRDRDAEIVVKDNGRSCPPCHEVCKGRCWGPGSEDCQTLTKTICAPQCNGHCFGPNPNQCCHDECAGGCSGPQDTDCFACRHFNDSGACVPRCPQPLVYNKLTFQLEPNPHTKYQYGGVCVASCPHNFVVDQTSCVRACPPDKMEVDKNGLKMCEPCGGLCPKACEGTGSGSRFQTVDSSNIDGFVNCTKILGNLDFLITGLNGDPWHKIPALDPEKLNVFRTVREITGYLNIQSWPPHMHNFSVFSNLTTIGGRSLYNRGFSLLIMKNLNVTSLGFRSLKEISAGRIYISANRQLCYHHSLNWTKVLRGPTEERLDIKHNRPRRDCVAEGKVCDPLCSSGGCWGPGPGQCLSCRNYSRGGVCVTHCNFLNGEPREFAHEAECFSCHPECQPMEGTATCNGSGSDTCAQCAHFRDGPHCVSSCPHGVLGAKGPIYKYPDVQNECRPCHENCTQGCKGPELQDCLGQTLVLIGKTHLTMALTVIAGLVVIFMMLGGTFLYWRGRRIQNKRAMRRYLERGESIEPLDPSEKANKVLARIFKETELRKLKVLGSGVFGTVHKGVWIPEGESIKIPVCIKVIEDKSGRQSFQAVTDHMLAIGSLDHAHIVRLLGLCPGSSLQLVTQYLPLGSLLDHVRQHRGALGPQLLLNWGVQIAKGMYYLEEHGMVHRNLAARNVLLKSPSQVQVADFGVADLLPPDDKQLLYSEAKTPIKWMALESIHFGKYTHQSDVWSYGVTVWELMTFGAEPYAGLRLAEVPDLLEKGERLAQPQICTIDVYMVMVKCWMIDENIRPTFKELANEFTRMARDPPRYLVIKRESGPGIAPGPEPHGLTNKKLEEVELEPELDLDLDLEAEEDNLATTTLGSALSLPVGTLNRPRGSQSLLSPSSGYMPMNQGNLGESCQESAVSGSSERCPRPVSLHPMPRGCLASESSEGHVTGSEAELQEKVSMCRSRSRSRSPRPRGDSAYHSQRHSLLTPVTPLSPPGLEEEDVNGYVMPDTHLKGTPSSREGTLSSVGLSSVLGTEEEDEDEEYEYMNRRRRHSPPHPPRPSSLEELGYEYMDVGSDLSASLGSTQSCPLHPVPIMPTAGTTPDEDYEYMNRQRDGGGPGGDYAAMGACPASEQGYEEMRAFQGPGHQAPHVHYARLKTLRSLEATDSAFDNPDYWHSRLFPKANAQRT
UniProt Q15303, whole entry R711C: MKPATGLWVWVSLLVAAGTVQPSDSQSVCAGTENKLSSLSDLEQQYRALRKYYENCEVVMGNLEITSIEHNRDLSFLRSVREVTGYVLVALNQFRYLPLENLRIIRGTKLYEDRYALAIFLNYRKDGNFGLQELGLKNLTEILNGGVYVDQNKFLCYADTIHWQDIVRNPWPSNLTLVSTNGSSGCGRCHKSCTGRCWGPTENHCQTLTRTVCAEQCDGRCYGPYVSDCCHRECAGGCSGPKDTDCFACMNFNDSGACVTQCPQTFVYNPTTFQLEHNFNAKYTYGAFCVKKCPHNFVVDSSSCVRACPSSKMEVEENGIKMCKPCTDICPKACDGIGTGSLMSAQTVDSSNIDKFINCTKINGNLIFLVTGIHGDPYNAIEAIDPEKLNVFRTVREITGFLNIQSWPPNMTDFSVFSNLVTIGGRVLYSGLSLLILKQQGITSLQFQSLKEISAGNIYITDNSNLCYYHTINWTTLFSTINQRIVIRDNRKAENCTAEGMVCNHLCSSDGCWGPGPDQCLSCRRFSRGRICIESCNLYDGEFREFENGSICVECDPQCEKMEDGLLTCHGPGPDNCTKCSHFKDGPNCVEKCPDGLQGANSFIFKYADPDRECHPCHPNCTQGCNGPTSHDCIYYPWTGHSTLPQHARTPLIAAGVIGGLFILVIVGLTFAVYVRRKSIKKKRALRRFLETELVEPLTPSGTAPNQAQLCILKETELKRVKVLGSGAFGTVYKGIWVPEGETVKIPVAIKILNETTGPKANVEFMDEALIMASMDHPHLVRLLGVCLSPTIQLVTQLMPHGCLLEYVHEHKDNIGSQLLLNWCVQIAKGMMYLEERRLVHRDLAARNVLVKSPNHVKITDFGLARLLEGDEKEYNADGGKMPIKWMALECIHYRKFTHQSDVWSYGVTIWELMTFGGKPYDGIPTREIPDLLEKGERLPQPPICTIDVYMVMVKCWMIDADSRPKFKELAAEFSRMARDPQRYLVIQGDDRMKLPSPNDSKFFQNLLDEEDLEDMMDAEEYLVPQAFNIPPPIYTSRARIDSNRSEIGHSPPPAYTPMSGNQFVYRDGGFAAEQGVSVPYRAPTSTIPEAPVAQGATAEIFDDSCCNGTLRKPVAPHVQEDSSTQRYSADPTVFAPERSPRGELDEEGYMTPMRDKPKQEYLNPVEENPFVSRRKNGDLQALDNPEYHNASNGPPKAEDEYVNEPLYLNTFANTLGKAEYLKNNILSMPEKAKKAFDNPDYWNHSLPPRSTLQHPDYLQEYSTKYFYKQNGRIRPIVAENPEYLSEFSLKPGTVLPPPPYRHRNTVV

Columns and labels:
Assay in all cases: kinase-Nluc reporter destabilization hit call (1 = scored as downregulated) (binary); higher = compound decreases kinase abundance
Conditions in all cases: K562, 2-18 h
EGFR = EGFR (UniProt P00533)
EGFR_G719S = EGFR_G719S (UniProt P00533)
EGFR_G719S_T790M = EGFR_G719S_T790M (UniProt P00533)
EGFR_L718V = EGFR_L718V (UniProt P00533)
EGFR_L858R = EGFR_L858R (UniProt P00533)
EGFR_L861Q = EGFR_L861Q (UniProt P00533)
EGFR_T790M = EGFR_T790M (UniProt P00533)
EPHA2 = EPHA2 (UniProt P29317)
ERBB3 = ERBB3 (UniProt P21860)
[1] = target: ERBB4_R711C (clone: ERBB4_mut) (UniProt Q15303)

Measured: kinase-Nluc reporter destabilization hit call

Cc1[nH]c(/C=C2\C(=O)Nc3ccc(F)cc32)c(C)c1C(=O)NCCN1CCCC1 [Toceranib (phosphate)]
inactive: EGFR; 2 µM 0 | EGFR_G719S; 2 µM 0 | EGFR_G719S_T790M; 2 µM 0 | EGFR_L718V; 2 µM 0 | EGFR_L858R; 2 µM 0 | EGFR_L861Q; 2 µM 0 | EGFR_T790M; 2 µM 0 | EPHA2; 2 µM 0 | ERBB3; 2 µM 0 | [1]; 2 µM 0

COCCOc1cc(F)c2c(Nc3ccc(NC(=O)Cn4cc(C(C)C)nn4)cc3)ncnc2c1 [AZD3229 Tosylate]
inactive: EGFR; 10 µM 0 | EGFR_G719S; 10 µM 0 | EGFR_G719S_T790M; 10 µM 0 | EGFR_L718V; 10 µM 0 | EGFR_L858R; 10 µM 0 | EGFR_L861Q; 10 µM 0 | EGFR_T790M; 10 µM 0 | EPHA2; 10 µM 0 | ERBB3; 10 µM 0 | [1]; 10 µM 0

CC(C)(C)n1nc(-c2cccc3ccccc23)c2c(N)ncnc21 [1-Naphthyl PP1 (hydrochloride)]
inactive: EGFR; 10 µM 0 | EGFR_G719S; 10 µM 0 | EGFR_G719S_T790M; 10 µM 0 | EGFR_L718V; 10 µM 0 | EGFR_L858R; 10 µM 0 | EGFR_L861Q; 10 µM 0 | EGFR_T790M; 10 µM 0 | EPHA2; 10 µM 0 | ERBB3; 10 µM 0 | [1]; 10 µM 0

N=C(N)NC(=O)c1nc(Cl)c(N)nc1N [Amiloride hydrochloride dihydrate]
inactive: EGFR; 10 µM 0 | EGFR_G719S; 10 µM 0 | EGFR_G719S_T790M; 10 µM 0 | EGFR_L718V; 10 µM 0 | EGFR_L858R; 10 µM 0 | EGFR_L861Q; 10 µM 0 | EGFR_T790M; 10 µM 0 | EPHA2; 10 µM 0 | ERBB3; 10 µM 0 | [1]; 10 µM 0

COc1cc2c(cc1OC)-c1c(C)c3ccc(OC)c(OC)c3c[n+]1CC2 [Dehydrocorydaline (chloride)]
inactive: EGFR; 10 µM 0 | EGFR_G719S; 10 µM 0 | EGFR_G719S_T790M; 10 µM 0 | EGFR_L718V; 10 µM 0 | EGFR_L858R; 10 µM 0 | EGFR_L861Q; 10 µM 0 | EGFR_T790M; 10 µM 0 | EPHA2; 10 µM 0 | ERBB3; 10 µM 0 | [1]; 10 µM 0

O=C1Nc2ccccc2/C1=C/c1ccccn1 [(E/Z)-GSK-3β inhibitor 1]
inactive: EGFR; 10 µM 0 | EGFR_G719S; 10 µM 0 | EGFR_G719S_T790M; 10 µM 0 | EGFR_L718V; 10 µM 0 | EGFR_L858R; 10 µM 0 | EGFR_L861Q; 10 µM 0 | EGFR_T790M; 10 µM 0 | EPHA2; 10 µM 0 | ERBB3; 10 µM 0 | [1]; 10 µM 0

COc1ncc(F)cc1CNc1ccc(Cc2c[nH]c3ncc(C)cc23)c(F)n1 [PLX5622 (hemifumarate)]
inactive: EGFR; 10 µM 0 | EGFR_G719S; 10 µM 0 | EGFR_G719S_T790M; 10 µM 0 | EGFR_L718V; 10 µM 0 | EGFR_L858R; 10 µM 0 | EGFR_L861Q; 10 µM 0 | EGFR_T790M; 10 µM 0 | EPHA2; 10 µM 0 | ERBB3; 10 µM 0 | [1]; 10 µM 0

Cc1[nH]c(/C=C2\C(=O)Nc3ccc(F)cc32)c(C)c1C(=O)NCCN1CCCC1 [Toceranib]
inactive: EGFR; 2 µM 0 | EGFR_G719S; 2 µM 0 | EGFR_G719S_T790M; 2 µM 0 | EGFR_L718V; 2 µM 0 | EGFR_L858R; 2 µM 0 | EGFR_L861Q; 2 µM 0 | EGFR_T790M; 2 µM 0 | EPHA2; 2 µM 0 | ERBB3; 2 µM 0 | [1]; 2 µM 0

Two successive records out of the list so far, quoted:
N=C(N)NC(=O)c1nc(Cl)c(N)nc1N [Amiloride hydrochloride dihydrate]
inactive: EGFR; 10 µM 0 | EGFR_G719S; 10 µM 0 | EGFR_G719S_T790M; 10 µM 0 | EGFR_L718V; 10 µM 0 | EGFR_L858R; 10 µM 0 | EGFR_L861Q; 10 µM 0 | EGFR_T790M; 10 µM 0 | EPHA2; 10 µM 0 | ERBB3; 10 µM 0 | [1]; 10 µM 0

COc1cc2c(cc1OC)-c1c(C)c3ccc(OC)c(OC)c3c[n+]1CC2 [Dehydrocorydaline (chloride)]
inactive: EGFR; 10 µM 0 | EGFR_G719S; 10 µM 0 | EGFR_G719S_T790M; 10 µM 0 | EGFR_L718V; 10 µM 0 | EGFR_L858R; 10 µM 0 | EGFR_L861Q; 10 µM 0 | EGFR_T790M; 10 µM 0 | EPHA2; 10 µM 0 | ERBB3; 10 µM 0 | [1]; 10 µM 0

Next entries.

CNc1ncc2cc(-c3ccc(-c4cccc(C)n4)cc3Cl)c(=O)n(C[C@H]3OC[C@H](N)CO3)c2n1
inactive: EGFR; 10 µM 0 | EGFR_G719S; 10 µM 0 | EGFR_G719S_T790M; 10 µM 0 | EGFR_L718V; 10 µM 0 | EGFR_L858R; 10 µM 0 | EGFR_L861Q; 10 µM 0 | EGFR_T790M; 10 µM 0 | EPHA2; 10 µM 0 | ERBB3; 10 µM 0 | [1]; 10 µM 0

CC(=O)N[C@H](Cc1ccc(O)cc1)C(=O)N[C@H](CCCN=C(N)N)C(=O)N[C@H](Cc1ccccc1)C(N)=O
inactive: EGFR; 10 µM 0 | EGFR_G719S; 10 µM 0 | EGFR_G719S_T790M; 10 µM 0 | EGFR_L718V; 10 µM 0 | EGFR_L858R; 10 µM 0 | EGFR_L861Q; 10 µM 0 | EGFR_T790M; 10 µM 0 | EPHA2; 10 µM 0 | ERBB3; 10 µM 0 | [1]; 10 µM 0

CN(C)C(=N)NC(=N)N [Metformin]
inactive: EGFR; 10 µM 0 | EGFR_G719S; 10 µM 0 | EGFR_G719S_T790M; 10 µM 0 | EGFR_L718V; 10 µM 0 | EGFR_L858R; 10 µM 0 | EGFR_L861Q; 10 µM 0 | EGFR_T790M; 10 µM 0 | EPHA2; 10 µM 0 | ERBB3; 10 µM 0 | [1]; 10 µM 0

C=CC(=O)N1CCN(c2ncnc3c(F)c(-c4c(O)cccc4F)c(Cl)cc23)CC1
inactive: EGFR; 2.5 µM 0 | EGFR; 10 µM 0 | EGFR_G719S; 2.5 µM 0 | EGFR_G719S; 10 µM 0 | EGFR_G719S_T790M; 2.5 µM 0 | EGFR_G719S_T790M; 10 µM 0 | EGFR_L718V; 2.5 µM 0 | EGFR_L718V; 10 µM 0 | EGFR_L858R; 2.5 µM 0 | EGFR_L858R; 10 µM 0 | EGFR_L861Q; 2.5 µM 0 | EGFR_L861Q; 10 µM 0 | EGFR_T790M; 2.5 µM 0 | EGFR_T790M; 10 µM 0 | EPHA2; 2.5 µM 0 | EPHA2; 10 µM 0 | ERBB3; 2.5 µM 0 | ERBB3; 10 µM 0 | [1]; 2.5 µM 0 | [1]; 10 µM 0

CCN(CC)Cc1ccc(OC)c(-c2cc3c(-c4ccc(C(=O)O)c(C(C)C)c4)ccnc3[nH]2)c1
inactive: EGFR; 2.5 µM 0 | EGFR; 10 µM 0 | EGFR_G719S; 2.5 µM 0 | EGFR_G719S; 10 µM 0 | EGFR_G719S_T790M; 2.5 µM 0 | EGFR_G719S_T790M; 10 µM 0 | EGFR_L718V; 2.5 µM 0 | EGFR_L718V; 10 µM 0 | EGFR_L858R; 2.5 µM 0 | EGFR_L858R; 10 µM 0 | EGFR_L861Q; 2.5 µM 0 | EGFR_L861Q; 10 µM 0 | EGFR_T790M; 2.5 µM 0 | EGFR_T790M; 10 µM 0 | EPHA2; 2.5 µM 0 | EPHA2; 10 µM 0 | ERBB3; 2.5 µM 0 | ERBB3; 10 µM 0 | [1]; 2.5 µM 0 | [1]; 10 µM 0
